US9493480B2, “Monomeric trioxane amide sulfur compounds” (THE JOHNS HOPKINS UNIVERSITY, priority 2011, dated 2016)
For at least one compound, name, drawing or mass did not settle the structure.

Tested on: Plasmodium berghei, ANKA malaria strain
Assay: In vivo antimalarial efficacy, single oral dose of trioxane combined with mefloquine hydrochloride in P. berghei infected mice
Settings: single oral dose of trioxane (6 mg/kg) combined with mefloquine hydrochloride (18 mg/kg)
Protocol: […] Rosenthal, A. S., et al., Malaria-infected Mice are Cured by a Single Oral Dose of New Dimeric Trioxane Sulfones Which are Also Selectively and Powerfully Cytotoxic to Cancer Cells. J. Med. Chem. 2009, 52, 1198-1203. Each of four mice in a group was treated orally 24 hours post infection with a single dose of 0.20 mL [(0.20 mL/1.07 mL)×0.64 mg=0.12 mg] of diluted trioxane solution, […] Alternatively, a single dose of 7.5 mg/kg of trioxane plus 15.0 mg/kg of mefloquine hydrochloride was used. The malariometrics used involved determining blood parasitemia levels, as well as monitoring the duration of animal survival compared to survival time of infected animals receiving no drug.
The average survival time of the malaria-infected animals receiving no drug was 6.8 days post infection. All of the infected mice in this study receiving the trioxane drug artemether (2b) plus mefloquine died on the average on day 18.8 post infection (Table 1, controls). Additionally, a single oral dose of artemether (6 mg/kg) plus lumefantrine (18 mg/kg) was not curative (see Table 1), with the mice dying an average of 12.5 days after infection. […]
A widely accepted indication of complete cure (i.e., 100% efficacy) is survival of animals to day 30 post infection with no detectable malaria parasites in the animals' blood at that time. […]

SMILES: CO[C@H]1O[C@@H]2O[C@@]3(C)CC[C@H]4[C@H](C)CC[C@@H]([C@H]1C)[C@@]24OO3 [artemether (2b), artemether, reference compound]
- cure outcome (survival to day 30 with no detectable parasites = complete cure): not curative
